Source: EP4724480A2
Results are given in words; binding and its absence hold for the method and conditions named. Binding calls can cover weak binding; strength is not graded here.

Experiments:
Assay in all cases: ELISA (FIG.12)
[1] = biological target: Basic membrane protein B (BmpB, Borrelia burgdorferi) (Borrelia burgdorferi)
[2] = biological target: Hemagglutinin (Influenza B) (Influenza B)
[3] = biological target: Non-structural protein 1 (NSP-1, Dengue virus) (Dengue virus)
[4] = biological target: Pilin (Streptococcus pneumoniae) (Streptococcus pneumoniae)

Measured: binding

B1: G2-VHH (VHH)
VHH: QVQLVESGGGLVQPGGSLRLSCAASGFTMGDYAIGWFRQVPGKEREGLSYSTKNGIKAYADSVRDRFTISRENAKNTVYLQMNSLKPEDTAVYYCAASTRFGGLLVSRYDYWGQGTQVTVSS
binds: [1] | [2] | [3] | [4]
